In patent publication US20040152665A1, “Amelioration of decreased weight and growth by n-acylated glucosamines” (priority 2003, published 2004):

Assay: Experiment 2: weight gain of rats restricted to 10 g (later 15 g) chow/day, supplement dissolved in water then solid
Format: in vivo, Sprague Dawley male rats
Conditions: water containing 20 mg/mL compound, first eight days; differences not statistically significant
Protocol: The animals were maintained in metabolic cages for the duration of the study (FIG. 2). Parameters of behavior and physical appearance were observed daily for any indications of toxicological complications. Twelve Sprague Dawley male rats were restricted to 10 g of Purina Rat Chow per day for eight days. Treatment groups were provided with water containing 20 mg/mL GlcN or GlcNBu. Daily volumes of urine produced and water consumed were recorded. The mean water consumption (ml/day) for the three groups was: 22.80, 24.45 and 21.45 for the control, the GlcN-supplemented and the GlcNBu-supplemented groups, respectively. These values were not statistically significant. On day nine of the study, untreated water was provided and the mass of rat chow given daily was increased to 15 g, supplemented with an additional 1.0 g of solid treatment compound. On day 18, the animals were sacrificed by CO2 asphyxiation and their organs were inspected for damage.

Structure (SMILES)	mean water consumption [mL/day]
CCCC(=O)N[C@H]1C(O)O[C@H](CO)[C@@H](O)[C@@H]1O (stereo partly drawn) [GlcNBu, N-butyryl-D-glucosamine]	21.45
N[C@H]1C(O)O[C@H](CO)[C@@H](O)[C@@H]1O (some centres unmarked) [GlcN, glucosamine]	24.45
